Test results as given in US4894340A, “Microbial sulfhydryl oxidase and method” (priority 1987, dated 1990).

Assay: Fluorometric analysis of flavins
Type: physicochemical
Conditions: fluorescence at pH 7.7 over pH 2.6

Row | SMILES | Fbase /Facid
1 | Cc1cc2nc3c(=O)[nH]c(=O)nc-3n(C[C@H](O)[C@H](O)[C@H](O)COP(=O)(O)O)c2cc1C [Authentic FMN, flavin mononucleotide] | 1.38
2 | Cc1cc2nc3c(=O)[nH]c(=O)nc-3n(C[C@H](O)[C@H](O)[C@H](O)COP(=O)(O)OP(=O)(O)OC[C@H]3O[C@@H](n4cnc5c(N)ncnc54)[C@H](O)[C@@H]3O)c2cc1C [Authentic FAD, flavin adenine dinucleotide] | 0.23
